# Reference: the supplement of paper PMC10735217
# Where a name gives a salt, the structure may show the parent alone. Some of the results follow. Repeats in this data set agree poorly, so a single value says little.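 In a drug-repurposing library screen, luminescence reads luciferase driven by eight TEAD-binding elements, stably integrated into human kidney-derived cells. Compounds scoring over five robust Z scores above the plate mean are called hits.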
# System: HEK293A TEAD-LUC reporter
# Test: TEAD-luciferase reporter activity (YAP activation), robust Z score vs plate; higher = stronger YAP/TEAD activation
# Settings: 24 h
SMILES,TEAD-luciferase reporter activity (compound concentration: 200 nM),TEAD-luciferase reporter activity (compound concentration: 2 uM),TEAD-luciferase reporter activity (compound concentration: 10 uM)
CNC1CCc2[nH]c3ccc(C(N)=O)cc3c2C1 (stereo not drawn),inactive: -0.548,inactive: -0.322,inactive: -0.41
C[C@@H](Nc1cc(NS(=O)(=O)N2CCC2)nc(SCc2cccc(F)c2F)n1)[C@@H](O)CO,inactive: -0.832,inactive: -0.587,inactive: -0.575
CC[C@@H]1SC2(CCN(C)CC2)NC1=O,inactive: -0.702,inactive: 0.744,inactive: -1.66
CC[N+](CC)(CCNC(=O)C(=O)NCC[N+](CC)(CC)Cc1ccccc1Cl)Cc1ccccc1Cl,inactive: 1.84,inactive: -2.1,inactive: 2.86
Cn1ncc2cc(-c3cc(CCC(=O)O)cc(N)c3OC3Cc4ccccc4C3)ccc21,inactive: 1.98,inactive: -1.41,inactive: -0.0274
COc1ccc(CS(=O)c2ncccc2C(=O)Nc2cc(C)ncc2C)c(OC)c1 (stereo not drawn),inactive: 0.494,inactive: 0.264,inactive: 0.224
CN1CCC(OC(c2ccccc2)c2ccccc2)CC1 [4-Diphenylmethoxy-1-methylpiperidine hydrochloride],inactive: -1.84,–,inactive: 1.35
CN1CCC(OC(c2ccccc2)c2ccccc2)CC1 [Diphenylpyraline hydrochloride],–,inactive: 0.836,–
Cc1ccc(CN(C)C2CCc3ccccc32)cc1 (stereo not drawn),inactive: 1.03,–,inactive: 2.93
CCCCC(=O)N(Cc1ccc(-c2ccccc2-c2nnn[nH]2)cc1)C(C(=O)O)C(C)C (stereo not drawn) [valsartan],inactive: -3.32,inactive: -1.32,inactive: 1.12
c1cnc(N2CCN(Cc3ccc4c(c3)OCO4)CC2)nc1 [piribedil],–,inactive: -0.0931,–
c1cnc(N2CCN(Cc3ccc4c(c3)OCO4)CC2)nc1 [Piribedil],inactive: -3.25,–,inactive: -0.428
O=C1N(c2ccccc2)c2ccccc2C1(Cc1ccncc1)Cc1ccncc1 [Linopirdine],–,inactive: -1.25,–
O=C1N(c2ccccc2)c2ccccc2C1(Cc1ccncc1)Cc1ccncc1,inactive: -0.771,–,inactive: -0.505
CN(C)CCCN1c2ccccc2Sc2ccccc21 [Promazine],–,inactive: -2.05,–
CN(C)CCCN1c2ccccc2Sc2ccccc21,inactive: -0.189,–,inactive: 1.77
CCCSc1nc(N[C@@H]2C[C@H]2c2ccc(F)c(F)c2)c2nnn([C@@H]3C[C@H](OCCO)[C@@H](O)[C@H]3O)c2n1 [Ticagrelor],inactive: 0.251,inactive: -1.39,inactive: -0.604
CC(C)(CO)NCc1ccc(OCCO)cc1,inactive: 1.23,inactive: 0.892,inactive: -0.148
CCN(C/C=C\c1ccc(C2CCCCC2)c(Cl)c1)C1CCCCC1,inactive: -1.44,inactive: -0.51,inactive: -1.09
CCCCCCCCCCCCCCOP(=O)([O-])O[C@H](CC(=O)O)C[N+](C)(C)C,–,–,inactive: 2.58
CC(=O)N[C@H]1[C@H]([C@H](O)[C@H](O)CO)O[C@](O)(C(=O)O)C[C@@H]1O [aceneuramic acid],inactive: -1.11,active: 5.01,inactive: -0.0594
CCCNc1nc(NC)nc2cc(-n3ccc(CCC(=O)NCCN4CCCCC4)c3)ccc12,inactive: -1.34,inactive: -0.581,inactive: 1.21
CCOC(=O)c1cnc(Nc2ccc(OC)cc2)[nH]c1=O,inactive: -1.93,inactive: 1.65,inactive: 3.37

SMILES,TEAD-luciferase reporter activity (compound concentration: 200 nM),TEAD-luciferase reporter activity (compound concentration: 2 uM),TEAD-luciferase reporter activity (compound concentration: 10 uM)
N=C1NCCC(C2NC(=O)/C(=C/NC(N)=O)NC(=O)C(CNC(=O)CC(N)CCCN)NC(=O)C(CO)NC(=O)C(N)CNC2=O)N1 (stereo not drawn),active: 5.14,inactive: -1.54,inactive: 1.35
CCN(CC)CCOC(=O)[C@H](Cc1ccc(NC(=O)c2c(Cl)cccc2Cl)cc1)NC(=O)c1c(C)cccc1Cl [valategrast hydrochloride],inactive: -1.65,inactive: -0.106,inactive: 0.185
CCN(CC)CCOC(=O)[C@H](Cc1ccc(NC(=O)c2c(Cl)cccc2Cl)cc1)NC(=O)c1c(C)cccc1Cl [Valategrast hydrochloride],–,inactive: -1.12,–
COCC(=O)O[C@]1(CCN(C)CCCc2nc3ccccc3[nH]2)CCc2cc(F)ccc2[C@@H]1C(C)C [mibefradil dihydrochloride],inactive: -0.257,inactive: -0.353,inactive: 0.474
"COCC(=O)O[C@]1(CCN(C)CCCc2nc3ccccc3[nH]2)CCc2cc(F)ccc2[C@@H]1C(C)C [mibefradil dihydrochloride,Tau]",–,inactive: -0.875,–
Cc1cc(C)nc(N2CC3CN(C(=O)c4c(F)cccc4-n4ccnn4)CC3C2)n1 (stereo not drawn),inactive: -0.431,inactive: 1.57,inactive: 0.335
OCCN1CCN(CCCN2c3ccccc3Sc3cc(Cl)cnc32)CC1,inactive: -1.36,inactive: -1.19,inactive: 0.733
C[C@@H]1C[C@H]2[C@@H]3CCC4=CC(=O)C=C[C@]4(C)[C@@]3(Cl)[C@@H](O)C[C@]2(C)[C@@]1(O)C(=O)CCl,inactive: 0.995,inactive: 0.00246,inactive: 4.31
CCN(CC)CC(C)(C)COC(=O)c1ccc(N)cc1,inactive: -0.593,inactive: 0.0519,inactive: -1.34
CO[C@H]1/C=C\C=C(/C)C(=O)NC2=CC(=O)C(NCCN(C)C)=C(C[C@@H](C)C[C@H](OC)[C@H](O)[C@@H](C)/C=C(\C)[C@@H]1OC(N)=O)C2=O [Alvespimycin hydrochloride],inactive: -3.05,inactive: -0.51,inactive: -1.67
CCN1CCN(C(=O)C2CCN(Cc3cc4ccccc4[nH]3)CC2)CC1,inactive: 2.47,inactive: -0.606,inactive: 0.677
CO/N=C(\C(=O)N[C@@H]1C(=O)N2C(C(=O)O)=C(C)CS[C@H]12)c1csc(N)n1 [Cefetamet sodium],inactive: -0.989,inactive: -0.933,inactive: -2.14
CC[C@H](C)[C@H](NC(=O)[C@H](CO)NC(=O)[C@H](CCCCN)NC(=O)CNC(=O)[C@H](CCCCN)NC(=O)[C@H](CC(=O)O)NC(=O)[C@H](Cc1cnc[nH]1)NC(=O)[C@H](CC(C)C)NC(=O)[C@H](CC(C)C)NC(=O)[C@H](CCC(N)=O)NC(=O)[C@H](Cc1cnc[nH]1)NC(=O)[C@H](CCC(=O)O)NC(=O)[C@H](CO)NC(=O)[C@@H](NC(=O)[C@H](C)N)C(C)C)C(=O)N[C@@H](CCC(N)=O)C(=O)N[C@@H](CC(=O)O)C(=O)N[C@@H](CC(C)C)C(=O)N[C@@H](CCCNC(=N)N)C(=O)N[C@@H](CCCNC(=N)N)C(=O)N[C@@H](CCCNC(=N)N)C(=O)N[C@@H](CCC(=O)O)C(=O)N[C@@H](CC(C)C)C(=O)N[C@@H](CC(C)C)C(=O)N[C@@H](CCC(=O)O)C(=O)N[C@@H](CCCCN)C(=O)N[C@@H](CC(C)C)C(=O)N[C@@H](CC(C)C)C(=O)NC(C)(C)C(=O)N[C@@H](CCCCN)C(=O)N[C@@H](CC(C)C)C(=O)N[C@@H](Cc1cnc[nH]1)C(=O)N[C@H](C(=O)N[C@@H](C)C(N)=O)[C@@H](C)O [Abaloparatide],inactive: -1.73,inactive: 0.043,active: 7
NCCCC[C@H](NC(=O)[C@H](Cc1c[nH]cn1)NC(=O)CN)C(=O)O [Glycyl-L-histidyl-L-lysine],inactive: 0.457,inactive: 0.424,inactive: -0.0219
COc1cccc(C(=O)NC[C@@H]2CC[C@H]3C[C@@H]2C3(C)C)c1,inactive: 4.18,–,inactive: 3.35
Cc1ccc(S(=O)(=O)OCC(=O)Nc2ccc(C(=O)O)c(O)c2)cc1,inactive: -3.69,inactive: -1.61,inactive: 0.638
CN(C)CCC(Oc1ccc2oc(-c3ccccc3)cc(=O)c2c1)c1ccccc1 (stereo not drawn),inactive: 2.64,inactive: -0.553,inactive: -0.855
CNC(=S)C1(c2cccnc2)CCCC[S+]1[O-] (stereo not drawn),inactive: -0.549,inactive: -0.791,inactive: -0.0436
CCOc1cc(C(CC(=O)NOC(=O)CC)N2C(=O)c3ccccc3C2=O)ccc1OC (stereo not drawn),inactive: -0.737,inactive: 0.406,inactive: -0.191
CC(C)C[C@H](NC(=O)CNC(=O)c1cc(Cl)ccc1Cl)B(O)O [Ixazomib],inactive: 4.69,inactive: -0.777,inactive: 3.19
CC1CC(O)(CC(=O)O)c2cc(F)c(Cl)cc2O1 (stereo not drawn),inactive: -1.54,inactive: -0.681,inactive: -0.963
CC[C@H](C)[C@H](N)C(=O)N[C@@H](CC(=O)O)C(=O)N[C@@H](CCC(N)=O)C(=O)N[C@@H](CCC(N)=O)C(=O)N[C@H](C(=O)N[C@@H](CC(C)C)C(=O)N[C@@H](CO)C(=O)N[C@@H](CCCNC(=N)N)C(=O)N[C@H](C(=O)N[C@@H](CCCCN)C(=O)N[C@@H](CC(C)C)C(=O)N[C@@H](CCC(=O)O)C(=O)N[C@H](C(=O)N[C@@H](CCCCN)C(=O)N[C@@H](CCCNC(=N)N)C(=O)N[C@@H](CS)C(=O)N[C@@H](CC(C)C)C(=O)O)[C@@H](C)CC)[C@@H](C)CC)C(C)C [Fexapotide triflutate],inactive: -0.854,inactive: -0.534,inactive: 0.213
COC(=O)c1ccc2c(c1)NC(=O)/C2=C(\Nc1ccc(N(C)C(=O)CN2CCN(C)CC2)cc1)c1ccccc1 [nintedanib],inactive: -0.644,inactive: -0.843,inactive: 3.33

# Given with bars between the fields: entries from further up.
SMILES | TEAD-luciferase reporter activity (compound concentration: 200 nM) | TEAD-luciferase reporter activity (compound concentration: 2 uM) | TEAD-luciferase reporter activity (compound concentration: 10 uM)
COCC(=O)O[C@]1(CCN(C)CCCc2nc3ccccc3[nH]2)CCc2cc(F)ccc2[C@@H]1C(C)C [mibefradil dihydrochloride] | inactive: -0.257 | inactive: -0.353 | inactive: 0.474
COCC(=O)O[C@]1(CCN(C)CCCc2nc3ccccc3[nH]2)CCc2cc(F)ccc2[C@@H]1C(C)C [mibefradil dihydrochloride,Tau] | – | inactive: -0.875 | –
Cc1cc(C)nc(N2CC3CN(C(=O)c4c(F)cccc4-n4ccnn4)CC3C2)n1 (stereo not drawn) | inactive: -0.431 | inactive: 1.57 | inactive: 0.335
OCCN1CCN(CCCN2c3ccccc3Sc3cc(Cl)cnc32)CC1 | inactive: -1.36 | inactive: -1.19 | inactive: 0.733
C[C@@H]1C[C@H]2[C@@H]3CCC4=CC(=O)C=C[C@]4(C)[C@@]3(Cl)[C@@H](O)C[C@]2(C)[C@@]1(O)C(=O)CCl | inactive: 0.995 | inactive: 0.00246 | inactive: 4.31
CCN(CC)CC(C)(C)COC(=O)c1ccc(N)cc1 | inactive: -0.593 | inactive: 0.0519 | inactive: -1.34
CO[C@H]1/C=C\C=C(/C)C(=O)NC2=CC(=O)C(NCCN(C)C)=C(C[C@@H](C)C[C@H](OC)[C@H](O)[C@@H](C)/C=C(\C)[C@@H]1OC(N)=O)C2=O [Alvespimycin hydrochloride] | inactive: -3.05 | inactive: -0.51 | inactive: -1.67
CCN1CCN(C(=O)C2CCN(Cc3cc4ccccc4[nH]3)CC2)CC1 | inactive: 2.47 | inactive: -0.606 | inactive: 0.677
CO/N=C(\C(=O)N[C@@H]1C(=O)N2C(C(=O)O)=C(C)CS[C@H]12)c1csc(N)n1 [Cefetamet sodium] | inactive: -0.989 | inactive: -0.933 | inactive: -2.14
CC[C@H](C)[C@H](NC(=O)[C@H](CO)NC(=O)[C@H](CCCCN)NC(=O)CNC(=O)[C@H](CCCCN)NC(=O)[C@H](CC(=O)O)NC(=O)[C@H](Cc1cnc[nH]1)NC(=O)[C@H](CC(C)C)NC(=O)[C@H](CC(C)C)NC(=O)[C@H](CCC(N)=O)NC(=O)[C@H](Cc1cnc[nH]1)NC(=O)[C@H](CCC(=O)O)NC(=O)[C@H](CO)NC(=O)[C@@H](NC(=O)[C@H](C)N)C(C)C)C(=O)N[C@@H](CCC(N)=O)C(=O)N[C@@H](CC(=O)O)C(=O)N[C@@H](CC(C)C)C(=O)N[C@@H](CCCNC(=N)N)C(=O)N[C@@H](CCCNC(=N)N)C(=O)N[C@@H](CCCNC(=N)N)C(=O)N[C@@H](CCC(=O)O)C(=O)N[C@@H](CC(C)C)C(=O)N[C@@H](CC(C)C)C(=O)N[C@@H](CCC(=O)O)C(=O)N[C@@H](CCCCN)C(=O)N[C@@H](CC(C)C)C(=O)N[C@@H](CC(C)C)C(=O)NC(C)(C)C(=O)N[C@@H](CCCCN)C(=O)N[C@@H](CC(C)C)C(=O)N[C@@H](Cc1cnc[nH]1)C(=O)N[C@H](C(=O)N[C@@H](C)C(N)=O)[C@@H](C)O [Abaloparatide] | inactive: -1.73 | inactive: 0.043 | active: 7
